The exact form of at least one protein or probe is not confirmed. At least one verdict rests on a figure or table, not on a statement of the authors.
Test system: BCL7A (Homo sapiens)
Assay: EMSA
Details: residues 1-231

| Sequence | binding result | binding result (5-methyl-C (CpG methylation) at C4 and C8 of both strands) |
| --- | --- | --- |
| CATGCATGACTGTCAG / CAGTCATGCATG [12_mix_3oh] | binds |  |
| CATGCATGACTG / TCAGCAGTCATGCATG [12_mix_5oh] | binds |  |
| GGGCGGCCGCCC (double strand) [12_CpG] | binds |  |
| CATGCATGACTG (double strand) [12_mix_Blunt] | binds |  |
| GGGGGGCCCCCC (double strand) [12_GpC] | binds |  |
| TTTTTATTAATAAAAA (double strand) [16_ATrich] | binds |  |
| GGGCGGCCGCCC (double strand) [12_CpGme2] |  | binds |
